This passage reports binding results from publication PMC5241866.

Sequences of proteins named here, by UniProt entry; tags and fusion partners are left off.
UniProt P10085: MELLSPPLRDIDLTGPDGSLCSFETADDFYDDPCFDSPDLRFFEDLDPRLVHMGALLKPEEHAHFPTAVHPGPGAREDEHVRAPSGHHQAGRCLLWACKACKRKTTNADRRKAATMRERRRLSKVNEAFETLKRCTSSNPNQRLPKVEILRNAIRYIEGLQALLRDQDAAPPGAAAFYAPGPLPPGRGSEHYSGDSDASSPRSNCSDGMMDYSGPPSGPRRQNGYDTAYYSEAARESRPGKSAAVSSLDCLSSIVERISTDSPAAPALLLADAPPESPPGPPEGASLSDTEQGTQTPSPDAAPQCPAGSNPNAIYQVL
UniProt Q6P9Z1: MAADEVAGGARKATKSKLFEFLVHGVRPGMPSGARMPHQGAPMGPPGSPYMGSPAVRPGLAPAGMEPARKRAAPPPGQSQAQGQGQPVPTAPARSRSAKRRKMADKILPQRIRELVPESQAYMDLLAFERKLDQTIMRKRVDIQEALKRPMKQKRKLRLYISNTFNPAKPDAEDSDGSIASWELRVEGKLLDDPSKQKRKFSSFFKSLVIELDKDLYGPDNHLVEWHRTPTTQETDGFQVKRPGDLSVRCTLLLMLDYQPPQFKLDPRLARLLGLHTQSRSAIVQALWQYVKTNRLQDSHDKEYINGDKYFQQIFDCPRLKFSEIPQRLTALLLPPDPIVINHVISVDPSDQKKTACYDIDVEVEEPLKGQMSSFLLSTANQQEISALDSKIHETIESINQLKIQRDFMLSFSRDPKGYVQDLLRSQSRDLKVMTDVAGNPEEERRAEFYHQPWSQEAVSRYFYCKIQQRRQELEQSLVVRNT
UniProt Q3TKT4: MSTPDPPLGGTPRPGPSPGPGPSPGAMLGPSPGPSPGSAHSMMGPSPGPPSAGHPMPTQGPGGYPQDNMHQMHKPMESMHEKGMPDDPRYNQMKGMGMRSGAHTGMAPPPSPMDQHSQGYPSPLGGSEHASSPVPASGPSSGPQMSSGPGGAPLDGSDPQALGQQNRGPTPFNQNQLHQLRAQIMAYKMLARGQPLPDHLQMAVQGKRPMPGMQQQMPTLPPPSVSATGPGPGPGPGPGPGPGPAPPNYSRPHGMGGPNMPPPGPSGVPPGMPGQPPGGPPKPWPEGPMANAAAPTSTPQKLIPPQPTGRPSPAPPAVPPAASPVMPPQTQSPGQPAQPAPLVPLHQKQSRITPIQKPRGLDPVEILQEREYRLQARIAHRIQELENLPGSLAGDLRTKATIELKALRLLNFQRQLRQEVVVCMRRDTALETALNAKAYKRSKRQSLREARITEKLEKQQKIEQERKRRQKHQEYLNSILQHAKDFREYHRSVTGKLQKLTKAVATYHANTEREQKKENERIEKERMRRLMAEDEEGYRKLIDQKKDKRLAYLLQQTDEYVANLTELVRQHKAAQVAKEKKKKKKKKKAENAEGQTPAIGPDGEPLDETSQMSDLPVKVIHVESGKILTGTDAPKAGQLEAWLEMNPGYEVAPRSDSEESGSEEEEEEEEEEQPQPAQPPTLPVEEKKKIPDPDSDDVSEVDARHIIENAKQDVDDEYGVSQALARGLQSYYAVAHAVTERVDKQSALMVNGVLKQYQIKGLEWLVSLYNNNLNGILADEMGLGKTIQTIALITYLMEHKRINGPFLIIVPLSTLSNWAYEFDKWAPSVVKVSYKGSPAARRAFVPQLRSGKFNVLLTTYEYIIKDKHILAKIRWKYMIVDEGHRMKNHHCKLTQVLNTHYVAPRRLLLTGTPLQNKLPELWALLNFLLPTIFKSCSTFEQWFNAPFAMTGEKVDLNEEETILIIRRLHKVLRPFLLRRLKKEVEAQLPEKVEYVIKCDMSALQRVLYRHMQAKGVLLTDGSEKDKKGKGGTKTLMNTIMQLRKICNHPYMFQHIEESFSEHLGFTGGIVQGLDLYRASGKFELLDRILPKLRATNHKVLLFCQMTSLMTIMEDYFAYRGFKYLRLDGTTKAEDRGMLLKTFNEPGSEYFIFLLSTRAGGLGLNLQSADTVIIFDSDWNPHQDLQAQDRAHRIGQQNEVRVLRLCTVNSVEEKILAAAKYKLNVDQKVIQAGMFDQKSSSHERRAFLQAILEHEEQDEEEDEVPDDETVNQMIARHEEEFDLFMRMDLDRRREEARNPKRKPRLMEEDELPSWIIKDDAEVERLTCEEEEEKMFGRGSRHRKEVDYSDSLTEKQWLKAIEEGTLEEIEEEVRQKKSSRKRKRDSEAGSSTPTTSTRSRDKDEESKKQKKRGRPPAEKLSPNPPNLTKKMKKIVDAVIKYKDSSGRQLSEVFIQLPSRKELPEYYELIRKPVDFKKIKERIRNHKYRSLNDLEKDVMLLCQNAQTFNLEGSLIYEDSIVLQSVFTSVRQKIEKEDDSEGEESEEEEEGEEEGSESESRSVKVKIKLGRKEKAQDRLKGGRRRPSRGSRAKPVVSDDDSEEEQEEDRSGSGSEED

No constants are given. Whether binding was seen depends on the method and setting. Binding seen in cells or lysates may run through a third protein. Some results given as binding are weak or reduced against the parent protein; the word gives no strength.

The target in the assay is MyoD (myogenic differentiation) (mouse (endogenous in C2C12)) (UniProt P10085). The assay is described as follows: co-IP; anti-MyoD antibody immunoprecipitation from lysates (200 ug protein) of differentiating C2C12 cells stably overexpressing Linc-RAM or shRNA targeting Linc-RAM, and control cells; western blot for Baf60c and Brg1.

For the substance “BAF60c (SMARCD3) (from UniProt Q6P9Z1 1-483)”, the binding result is reported as “binds”.
Regarding Brg1 (from UniProt Q3TKT4 1-1613), the binding entry is listed as “binds”.
